Values quoted from earlier work as cited in patent publication US10946020B2, “Compositions and methods for treating cancer” (University of Virginia Patent Foundation, priority 2016, dated 2021).
At least one compound was matched to its structure with a doubt left.

Tested on: glioblastoma
Settings: TMZ regimen added to radiation treatment, cited from earlier work

In the case of Cn1nnc2c(C(N)=O)ncn2c1=O [TMZ, temozolomide], the two-year survival (10.4% without) is listed as 26.4% and the median survival (about 12 months without) is listed as 14.6 months.
